Experimental data reported in publication PMC4383579.
Results are given in words; binding and its absence hold for the method and conditions named. Some results given as binding are weak or reduced against the parent protein; the word gives no strength.

The chains behind the UniProt entries cited, without tags or fusion partners. Where a name states a change or a piece, a line headed by the entry shows the natural chain unless it says otherwise.
UniProt P56757: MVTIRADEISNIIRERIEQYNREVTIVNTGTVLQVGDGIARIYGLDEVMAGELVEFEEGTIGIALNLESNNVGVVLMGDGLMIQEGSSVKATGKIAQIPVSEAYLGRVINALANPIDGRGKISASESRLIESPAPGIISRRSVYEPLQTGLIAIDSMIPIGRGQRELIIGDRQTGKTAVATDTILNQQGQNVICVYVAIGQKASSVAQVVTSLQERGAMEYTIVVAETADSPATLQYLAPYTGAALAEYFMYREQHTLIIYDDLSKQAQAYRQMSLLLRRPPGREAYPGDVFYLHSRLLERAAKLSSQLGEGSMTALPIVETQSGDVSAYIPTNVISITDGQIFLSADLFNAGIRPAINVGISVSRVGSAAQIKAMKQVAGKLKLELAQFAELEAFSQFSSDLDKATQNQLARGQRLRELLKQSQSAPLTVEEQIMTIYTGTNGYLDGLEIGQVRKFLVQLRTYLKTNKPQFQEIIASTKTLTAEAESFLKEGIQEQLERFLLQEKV
UniProt P19366: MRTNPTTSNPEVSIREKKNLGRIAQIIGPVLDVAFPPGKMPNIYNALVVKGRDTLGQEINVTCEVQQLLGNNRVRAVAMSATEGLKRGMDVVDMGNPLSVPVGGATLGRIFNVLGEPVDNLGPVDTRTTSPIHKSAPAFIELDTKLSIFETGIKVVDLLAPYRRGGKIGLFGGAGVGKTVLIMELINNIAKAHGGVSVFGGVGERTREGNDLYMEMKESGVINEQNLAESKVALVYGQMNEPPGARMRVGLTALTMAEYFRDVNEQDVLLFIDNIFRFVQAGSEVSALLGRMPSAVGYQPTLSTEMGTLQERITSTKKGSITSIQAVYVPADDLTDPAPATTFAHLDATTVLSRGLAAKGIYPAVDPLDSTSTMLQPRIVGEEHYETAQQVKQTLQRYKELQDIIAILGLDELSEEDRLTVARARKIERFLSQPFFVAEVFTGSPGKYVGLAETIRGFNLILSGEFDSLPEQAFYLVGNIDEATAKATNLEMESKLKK
UniProt Q01908: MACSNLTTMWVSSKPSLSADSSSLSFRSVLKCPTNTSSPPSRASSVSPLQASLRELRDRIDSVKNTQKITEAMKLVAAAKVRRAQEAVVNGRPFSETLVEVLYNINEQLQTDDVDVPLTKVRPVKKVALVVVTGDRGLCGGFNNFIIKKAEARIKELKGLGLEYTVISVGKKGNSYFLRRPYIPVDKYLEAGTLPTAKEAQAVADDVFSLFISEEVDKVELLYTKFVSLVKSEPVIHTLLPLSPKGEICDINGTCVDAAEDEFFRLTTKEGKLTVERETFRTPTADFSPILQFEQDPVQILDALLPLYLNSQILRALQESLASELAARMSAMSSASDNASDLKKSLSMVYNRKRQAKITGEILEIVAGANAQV
UniProt Q9SSS9: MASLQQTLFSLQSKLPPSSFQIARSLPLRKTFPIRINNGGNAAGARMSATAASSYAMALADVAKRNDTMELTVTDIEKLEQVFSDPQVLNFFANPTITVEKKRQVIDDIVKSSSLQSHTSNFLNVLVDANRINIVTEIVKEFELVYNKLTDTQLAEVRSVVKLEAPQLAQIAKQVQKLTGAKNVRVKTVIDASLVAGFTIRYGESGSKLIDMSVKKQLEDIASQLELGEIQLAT
UniProt P09468: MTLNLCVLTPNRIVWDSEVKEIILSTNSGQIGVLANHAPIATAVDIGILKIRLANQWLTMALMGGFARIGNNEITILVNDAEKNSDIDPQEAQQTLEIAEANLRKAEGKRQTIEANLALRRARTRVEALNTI

Columns and labels:
[1] = molecular target: T1, CF1 sub-complex of chloroplast ATP synthase (CF1-containing complex of ~300 kDa on BN-PAGE) (Arabidopsis thaliana (endogenous in thylakoids)) (UniProt P56757+P19366+Q01908+Q9SSS9+P09468); experiment: native gel or EMSA; 2D BN/SDS-PAGE: BN-PAGE lanes of solubilised thylakoids denatured and run on SDS-PAGE (12%, 6 M urea); co-migration read by immunoblots for CGL160 and individual ATP synthase subunits
[2] = molecular target: T1, CF1 sub-complex of chloroplast ATP synthase (CF1-containing complex of ~300 kDa on BN-PAGE) (Arabidopsis thaliana (endogenous in thylakoids)); experiment: native gel or EMSA; BN-PAGE (5–13.5% gradient, 4°C) of thylakoid membranes solubilised with n-dodecyl β-D maltoside; co-migration read by immunoblots with antibodies against D1, CF1 and CGL160
[3] = molecular target: T2, AtpI, CF0 subunit a of chloroplast ATP synthase (Arabidopsis thaliana (endogenous in thylakoids)), P56758; experiment: native gel or EMSA; 2D BN/SDS-PAGE: BN-PAGE lanes of solubilised thylakoids denatured and run on SDS-PAGE (12%, 6 M urea); co-migration read by immunoblots for CGL160 and individual ATP synthase subunits; details: remark: other sources report otherwise
T2 chain: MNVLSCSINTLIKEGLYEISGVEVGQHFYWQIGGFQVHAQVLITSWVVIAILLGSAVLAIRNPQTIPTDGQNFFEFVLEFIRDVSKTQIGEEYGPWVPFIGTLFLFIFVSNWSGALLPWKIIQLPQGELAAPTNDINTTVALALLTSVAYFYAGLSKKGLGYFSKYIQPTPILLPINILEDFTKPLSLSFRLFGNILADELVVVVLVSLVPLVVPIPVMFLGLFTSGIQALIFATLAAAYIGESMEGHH

| Binder | binding [1] | binding [2] | binding [3] |
| --- | --- | --- | --- |
| CGL160 (Conserved Green Lineage 160), Arabidopsis thaliana (protein, UniProt O82279 47-350) GEYGGPPTTTKLRKYWGGEKEDPITSTDLIWNRDFMDQMKKLFDDPNDSSLDPSPSKEKSSGFLSFSRVMSLDSMDVDLSKELASSSKSVVKNRLDTSKSEAKKQMSKAIVSPKWKLAPTRREQEKWDRATKAATGGSDVMFRELRRPRGDPEVQAAKDREQYFKLKNKIQVLTLGIGGVGLVSAYISYTPEIALSFGAGLLGSLAYMRMLGNSVDAMADGARGVAKGAANQPRLLVPVVLVMIFNRWNAILVPEYGFMHLELIPMLVGFFTYKIATFFQAIEEAISITTQKPESISPDTQASD | binds | binds | – |
| CGL160 (Conserved Green Lineage 160), Arabidopsis thaliana, O82279 47-350 (protein) GEYGGPPTTTKLRKYWGGEKEDPITSTDLIWNRDFMDQMKKLFDDPNDSSLDPSPSKEKSSGFLSFSRVMSLDSMDVDLSKELASSSKSVVKNRLDTSKSEAKKQMSKAIVSPKWKLAPTRREQEKWDRATKAATGGSDVMFRELRRPRGDPEVQAAKDREQYFKLKNKIQVLTLGIGGVGLVSAYISYTPEIALSFGAGLLGSLAYMRMLGNSVDAMADGARGVAKGAANQPRLLVPVVLVMIFNRWNAILVPEYGFMHLELIPMLVGFFTYKIATFFQAIEEAISITTQKPESISPDTQASD | – | – | no binding |
